These are literature values, as cited in patent US9682037B2, “Non-mucoadhesive film dosage forms” (APR APPLIED PHARMA RESEARCH S.A., priority 2006, dated 2017).

Each structure is given as a SMILES string.

With `COc1cc2c(cc1OC)C(=O)C(CC1CCN(Cc3ccccc3)CC1)C2.Cl` (racemic) [Donepezil HCl, (±) 2,3-dihydro-5,6-dimethoxy-2-[[1-(phenylmethyl)-4-piperidinyl]methyl]-1H-inden-1-one hydrochloride], under “in vivo”, the “Absolute Bioavailability” value is reported as “Absolute Bioavailability = ca. 100%” and the Tmax result is given as “Tmax = 3-4 Hours hours”. Under “result in words”, the “Effect of food on absorption” value is “Neither food nor time of administration” and the “Linearity / dose proportionality of pharmacokinetics” value is listed as “Linear Pharmacokinetics over 1-10 mg dose”.
